Data as given in PubChem BioAssay AID1347426 (Functional Genomics Laboratory (NCATS/FGL), 2020).
The whole screen tested about 31,000 sequences, of which about 1,400 (4.5%) were called active.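 The calls were made as follows: active = median seed-adjusted z-score above 1 or below -1; inactive = the rest.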 This is one part of the list.

assay: Novel Modifiers of Survival Motor Neuron (SMN) Protein: Gene Identification via Genome-wide siRNA Screen; details: HEK293T SMN2-luciferase reporter, siRNA knockdown, 72 h; actives lie on both sides;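 also: luminescence tracks full-length SMN protein made from the SMN2 reporter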
Outline: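 HEK293T cells stably expressing an SMN2 splicing/cDNA-luciferase reporter were reverse-transfected with a druggable-genome siRNA library and read by luminescence at 72 hours; hits defined by MAD score above 1.0 or below -1.0.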

Sequence	median seed-adjusted z-score
GAAAUUUGAUCUCAGUUAUTT against MFN1	inactive: 0.21
CCGACUACCUGAUGAAGAUTT against ACTA1	inactive: -0.103
CACUCUAUGUCAACGUGAATT against EDEM1	inactive: -0.175
CCAGUACCCUGAUGCUACATT against SPP1	inactive: -0.293
GGAGUGAAGACUUCGAGAATT against KCNN2	inactive: -0.0251
CACCUAUGAUCGCUCCAUUTT against RRAD	inactive: -0.267
CCUAAGUUCUCAACAGUUATT against TESSP2	inactive: 0.419
GGAAAGGAAUGGUCACGAATT against ZNF321	inactive: -0.642
GCAUUACCGGAAAAAGCGATT against MPZL2	inactive: -0.0172
CGAUUACCAUCGCAGGUCATT against SH3BP1	inactive: -0.225
GACCAGACUUUGUACCCUUTT against RNASEN	inactive: 0.524
CAGCGACUGUGGAAAAUCATT against ZNF484	inactive: 0.2
CAAACUACCUAUACGGCAATT against NPTX2	inactive: 0.0558
GGCAUUACUUGGACGACUATT against SLC4A11	inactive: -0.18
GCACUACGAGCAACGAAUATT against USP13	inactive: -0.044
GAAUUUAUCCCAAAGAAUATT against FOXN2	inactive: 0.0947
CAUGGUCACUGCUAGUGUATT against MBOAT1	active: -1.22
CUACACCACCUAUUCCAGATT against PARVG	inactive: 0.321
CGGGAUUGAUGGUUUAACUTT against COL9A2	inactive: 0.0208
AGAUCAAGCUCGACGGCUATT against EHD4	inactive: 0.333
GGAUACCUACGUGAUGAAATT against PCDH11X	inactive: -0.203
CGUGGUUGUUGUAAUCCAATT against PCDHGB1	inactive: -0.482
AGAAUGUGCGGCUUAUUGATT against CCDC88B	inactive: -0.153
AGAUCCUCAAGUACAAGAUTT against RAB20	inactive: -0.334
GGUUGUAGCUGUAACUGGUTT against ATP2B1	inactive: -0.459
AGAUCAAAGUUGGUCCAAATT against MASP1	inactive: 0.653
AAAUCUUCUUUCGACAACATT against RAB37	inactive: 0.0678
CCCAAUUACUCAGCAGGAATT against AHRR	inactive: -0.636
GCCUGGAGGUAACUGCUUATT against AKR1A1	inactive: -0.255

2 entries from above, with each value named.
AGAUCAAAGUUGGUCCAAATT against MASP1
  median seed-adjusted z-score: inactive: 0.653
AAAUCUUCUUUCGACAACATT against RAB37
  median seed-adjusted z-score: inactive: 0.0678
